Reference: PubChem BioAssay AID493014 (National Center for Advancing Translational Sciences (NCATS), 2011)
This is one part of the list. Shown are side measurements of this screen, not its main read-out; they come without a call. Most of these compounds were active or inconclusive in the main read-out, so they are no random draw. The note in brackets gives the kind of curve behind each potency; many fits are weak.

Experiment: qHTS Assay to Find Inhibitors of Chronic Active B-Cell Receptor Signaling
Details: ABC-DLBCL IkBa-CBG/CBR reporter, luminescence ratio (green luciferase fused to IkBa over red control in TMD8 lymphoma cells), 4 h
Outline: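 Cell line TMD8 (human ABC DLBCL), stably expressing tet-inducible CBG68-IkBa fusion and CBR; IMDM/0.5% FBS; cpd up to 46 uM; dox induction, 4 h, 37C/5% CO2; dual luminescence; green/red ratio; MG132 control.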

[1] = measured here: CBR red luminescence, cell number
[2] = measured here: IkBa-CBG green luminescence

Row | SMILES | AC50 [1] | AC50 [2]
1 | CCOC(=O)C1CCN(C(=O)Cn2nc(C)n3nc(-c4ccc(OC)cc4)cc3c2=O)CC1 | 12.6 µM [rising, partial curve, poor fit] | 
2 | CCCCNCCCCOc1ccccc1 | 6.51 µM [falling, single point] | 
3 | O=C(Nc1ccccc1Cl)c1ccc(-n2cccn2)c([N+](=O)[O-])c1 | 0.0891 µM [falling, full curve, poor fit] | 
4 | Cc1ccc(C2NC(=O)c3ccccc3O2)cc1 (stereo unspecified) | 17.8 µM [rising, single point] | 
5 | CC1CCCCN1CCNC(=O)c1cc2c(=O)n(C)c3ccccc3c2n1C (stereo unspecified) | 3.16 µM [falling, partial curve, poor fit] | 
6 | COC(=O)c1[nH]c2cccc(C)c2c1NC(=O)CN1CCCc2ccccc21 | 6.51 µM [rising, single point] | 
7 | C=CCN(c1ccccc1)S(=O)(=O)c1cccc(C(=O)NNC(=O)c2ccccc2O)c1 | 23.1 µM [falling, single point] | 
8 | CCOC(=O)c1ccc(NC(=O)c2c(NCc3cccs3)sc3c2CCCCC3)cc1 | 20 µM [falling, single point] | 
9 | CCN(C(=O)COC(=O)c1ccccc1NCCO)C1CCS(=O)(=O)C1 (stereo unspecified) | 23.1 µM [falling, partial curve] | 
10 | CCOC(=O)[C@H]1[C@H]2COc3ccc(Br)cc3[C@@H]2N2C(=O)CN(Cc3ccco3)C(=O)[C@@]12C | 5.17 µM [falling, partial curve] | 5.8 µM [rising, partial curve, poor fit]
11 | Oc1ccc(-c2nc3ccccc3nc2-c2ccccc2)cc1 | 3.98 µM [falling, partial curve, poor fit] | 
12 | Cc1c(NC(=O)COC(=O)Cn2cc(C(F)(F)F)ccc2=O)cccc1[N+](=O)[O-] | 11.6 µM [rising, partial curve, poor fit] | 
13 | Oc1ccc(-c2csc(Nc3ncccn3)n2)cc1O | 12.6 µM [falling, partial curve, poor fit] | 
14 | O=C(Cc1ccc(F)cc1)NCC1CCCO1 (stereo unspecified) | 35.5 µM [falling, single point] | 
15 | O=C(NC(=S)Nc1ccc(Cl)cn1)c1cccs1 | 8.91 µM [falling, partial curve, poor fit] | 
16 | CC(=O)c1sc(-c2ccc(F)cc2)cc1NS(=O)(=O)c1ccc(C)cc1 | 7.08 µM [rising, partial curve] | 
17 | O=S(=O)(N1CCCCC1)N1CCN(c2ccc(F)cc2)CC1 | 29.1 µM [rising, single point] | 
18 | COc1cc2c(cc1OC)CN(C(=O)COc1ccccc1[N+](=O)[O-])CC2 | 2.82 µM [falling, full curve] | 
19 | CCSc1nnc(NC(=O)c2ccccn2)s1 | 16.4 µM [falling, partial curve, poor fit] | 29.1 µM [falling, single point]
20 | O=C(Oc1ccccc1C(=O)Oc1ccccc1)c1cccnc1 | 35.5 µM [rising, single point] | 35.5 µM [falling, single point]

Reprinted at random: 2 records from the list.
Row | SMILES | AC50 [1] | AC50 [2]
20 | O=C(Oc1ccccc1C(=O)Oc1ccccc1)c1cccnc1 | 35.5 µM [rising, single point] | 35.5 µM [falling, single point]
19 | CCSc1nnc(NC(=O)c2ccccn2)s1 | 16.4 µM [falling, partial curve, poor fit] | 29.1 µM [falling, single point]

Later entries:

Row | SMILES | AC50 [1] | AC50 [2]
21 | C#CCOCCOCCOCCNc1nc(N2CCN(C(=O)CCCCCCCCCCNC(=O)[C@H]([C@@H](C)CC)n3cc(CCCCN=C(N)N)nn3)CC2)nc(N2CCN(C(=O)CCCCCCCCCCNC(=O)[C@H](CO)n3cc(CCCSC)nn3)CC2)n1 | 4.61 µM [rising, partial curve] | 5.17 µM [falling, single point]
22 | Cn1c(=O)oc2cc(S(=O)(=O)NCc3ccncc3)ccc21 | 11.2 µM [falling, partial curve, poor fit] | 
23 | O=C(COc1ccc(Cl)cc1)Nc1ncc([N+](=O)[O-])s1 | 0.126 µM [falling, full curve, poor fit] | 
24 | Cn1c(=O)c2c(nc(Cc3ccccc3)n2C)n(C)c1=O | 1 µM [falling, partial curve, poor fit] | 
25 | COc1nc(N2CCCCCC2)nc(N2CCCCCC2)n1 | 20.6 µM [rising, partial curve, poor fit] | 20.6 µM [falling, single point]
26 | Cc1noc(C)c1CSCC(=O)OCc1nnc(-c2ccc([N+](=O)[O-])cc2)o1 | 29.1 µM [rising, single point] | 
27 | Cc1ncc([N+](=O)[O-])n1CCOC(=O)NC(NCc1ccccc1)C(Cl)(Cl)Cl (stereo unspecified) | 3.98 µM [falling, partial curve, poor fit] | 
28 | COC(=O)C1=C(C)N(Cc2ccccc2)C(=NCC(C)C)N[C@H]1c1ccccc1 | 10 µM [falling, partial curve] | 
29 | C/C(N)=C(/C#N)C(=O)COC(=O)c1ccc(C)c(S(=O)(=O)N2CCCCC2)c1 | 14.6 µM [falling, partial curve, poor fit] | 
30 | CCCOc1cccc(-c2cc(C(=O)N/N=C/c3ccccn3)c3ccccc3n2)c1 | 2.51 µM [rising, full curve, poor fit] | 
31 | CCOc1ccccc1OCCCC(=O)Nc1ccc(OC)nc1 | 2.31 µM [rising, partial curve] | 
32 | CC(Sc1nnc(COc2ccc([N+](=O)[O-])cc2)n1-c1ccccc1)C(=O)O (stereo unspecified) | 35.5 µM [falling, single point] | 
33 | COc1ccc(C(=O)NCCc2nnc(SCC(=O)Nc3ccccc3)n2C)cc1 | 0.326 µM [falling, partial curve, poor fit] | 
34 | c1ccc(N2CCN(Cc3nc4ccccc4[nH]3)CC2)nc1 | 5.62 µM [falling, single point] | 
35 | Cc1cc(C)cc(NC(=O)C2CCN(S(=O)(=O)c3ccc4c(c3)NC(=O)C(C)S4)CC2)c1 (stereo unspecified) | 14.1 µM [falling, single point] | 
36 | CC1=C(C(=O)Nc2ccc([N+](=O)[O-])cc2)C(c2cccc(C(F)(F)F)c2)NC(=S)N1c1ccccc1 (stereo unspecified) | 25.9 µM [falling, single point] | 
37 | Cc1ccc(-c2nn3c(C)nnc3c3ccccc23)cc1S(=O)(=O)N1CCN(CCO)CC1 | 12.6 µM [rising, partial curve, poor fit] | 
38 | Cc1ccc(N=C/C(C(=O)C(F)(F)F)=C(\O)c2ccco2)cc1Cl | 1.84 µM [rising, partial curve] | 
39 | CN(CC(=O)Nc1ccccc1Br)C(=O)CCCSc1nc2ccccc2[nH]1 | 13 µM [rising, partial curve, poor fit] | 
40 | O=C1c2ccccc2C(=O)c2[nH]cnc21 | 7.08 µM [falling, partial curve] | 

Row | SMILES | AC50 [1] | AC50 [2]
41 | CC(C)Cn1c(=O)c(CCC(=O)Nc2ccc(N3CCOCC3)cc2)nc2cc(Cl)ccc21 | 1.26 µM [rising, full curve, poor fit] | 
42 | Cc1ccnc(NC(=O)c2ccc(Cl)s2)c1 | 28.2 µM [falling, single point] | 
43 | Cc1ccc2nc(N3CCCCC3)c(C=O)c(=O)n2c1 | 12.6 µM [rising, single point] | 
44 | COC(=O)c1ccc(CSc2nc(C(F)(F)F)c3c(c2C#N)CCC3)o1 |  | 12.6 µM [rising, partial curve, poor fit]
45 | O=C(c1cc(-c2ccc(O)cc2)on1)N1CCc2ccccc2C1 | 22.4 µM [falling, partial curve, poor fit] | 
46 | O=C(NNC(=O)C1C2CCC(C2)C1C(=O)O)c1ccc(Cl)cc1 (stereo unspecified) | 10 µM [falling, partial curve] | 
47 | O=C(NCCn1cc(SCc2ccc(F)cc2)c2ccccc21)c1c(F)cccc1F | 29.1 µM [falling, single point] | 
48 | COC(=O)C1C(c2ccccc2)C(C(=O)OCc2ccco2)C1c1ccccc1 (stereo unspecified) | 6.51 µM [falling, full curve] | 
49 | CC(OC(=O)CCCSc1nc2ccccc2s1)C(=O)NC(N)=O (stereo unspecified) | 10 µM [falling, partial curve] | 
50 | O=C(CNc1cccc(F)c1)Nc1cccc(S(=O)(=O)N2CCCCC2)c1 | 6.51 µM [rising, partial curve, poor fit] | 
51 | Cc1ccc(Nc2nc(N)nc(CSc3ncccn3)n2)cc1 | 16.4 µM [falling, partial curve] | 
52 | Cc1cc(C(=O)NCCc2ccc(Cl)cc2)c(C)o1 | 14.1 µM [falling, single point] | 
53 | O=C(NCCS(=O)(=O)N1CCN(c2ccc(F)cc2)CC1)C12CC3CC(CC(C3)C1)C2 | 5.8 µM [rising, partial curve, poor fit] | 
54 | CCN(CCCNC(=O)C1CCN(S(=O)(=O)c2cnc[nH]2)CC1)c1ccccc1 | 10.3 µM [falling, single point] | 
55 | COc1ccccc1-n1cc(-c2ccc(Br)cc2)[nH]c1=S | 8.91 µM [falling, partial curve, poor fit] | 
56 | CC1CCN(C2=NC(=O)/C(=C/c3cccc(O)c3)S2)CC1 | 35.5 µM [falling, single point] | 
57 | Nc1nc(N)nc(-c2ccc(Cl)c(Cl)c2)n1 | 29.1 µM [falling, single point] | 20.6 µM [rising, partial curve, poor fit]
58 | Cc1cc(Oc2ccc(Cl)cc2)nc(-c2ccccc2O)n1 | 1.84 µM [rising, full curve, poor fit] | 
59 | O=C(CN(C(=O)CCC(=O)Nc1ccccn1)c1ccc(F)cc1)NCc1ccco1 | 8.91 µM [falling, partial curve] | 
60 | CCOC(=O)C1CCCN(C(=O)c2cn(CC)c3ccc(S(=O)(=O)N(C)C)cc3c2=O)C1 (stereo unspecified) | 0.103 µM [falling, full curve, poor fit] | 

Grouped by structure: the compounds so far containing a COOH group
Row | SMILES | AC50 [1] | AC50 [2]
32 | CC(Sc1nnc(COc2ccc([N+](=O)[O-])cc2)n1-c1ccccc1)C(=O)O (stereo unspecified) | 35.5 µM [falling, single point] | 
46 | O=C(NNC(=O)C1C2CCC(C2)C1C(=O)O)c1ccc(Cl)cc1 (stereo unspecified) | 10 µM [falling, partial curve] | 
